Taken from: PubChem BioAssay AID1224828 (NIAID, 2016)

Assay: 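Knock-downs that increase or decrease LPS-induced p65 nuclear translocation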 (primary screen)
System: mouse RAW264.7 G9 macrophage reporter cells (GFP-p65, Tnf promoter-mCherry)
Reagent: siRNA pool against mouse genes, 100 nM
Duration: 2 days siRNA transfection, then 40 min LPS before fixation
Conditions: LPS (Salmonella minnesota R595) at 10 ng/ml
Detection: 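Imaged p65 nuclear translocation ratio, normalised to the plate median, converted to robust z-scores and averaged across two replicates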
Reading the numbers: p65 translocation robust z-score: higher = more nuclear NF-kappaB p65 after LPS than the plate median; nuclear/cytoplasmic p65 ratio: higher = more nuclear NF-kappaB p65
Active means: 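Called active when z exceeds 3.3 or falls under -1.56 (median of Tlr4 controls), giving activity score of at least 50; no calls for control wells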
Meaning of the calls: active = hit (p65 shift raised or lowered); inactive = no clear change
The deposit covers about 17,000 reagents; this is a random part of them. 762 of all reagents (4.5%) count as active. 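Active calls include both raised and lowered p65 entry, mostly lowered; wells with fewer than 50 cells lack a z-score.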 The raw values are shown without normalisation. Unmarked entries are inactive. Some reagents were tested in more than one well and are listed for each. Reagent sequences are not shown.

The opening 2 records as a preview:
Snrpa1 → nuclear/cytoplasmic p65 ratio, rep 1 = 1.21; nuclear/cytoplasmic p65 ratio, rep 2 = 1.11; low cell count flag = fewer than 50 cells per well; well left out of scoring
Tulp1 → p65 translocation robust z-score = 0.11; nuclear/cytoplasmic p65 ratio, rep 1 = 1.57; nuclear/cytoplasmic p65 ratio, rep 2 = 1.47; low cell count flag = enough cells to score

The listing, repeating the preview:
Snrpa1 → nuclear/cytoplasmic p65 ratio, rep 1 = 1.21; nuclear/cytoplasmic p65 ratio, rep 2 = 1.11; low cell count flag = fewer than 50 cells per well; well left out of scoring
Tulp1 → p65 translocation robust z-score = 0.11; nuclear/cytoplasmic p65 ratio, rep 1 = 1.57; nuclear/cytoplasmic p65 ratio, rep 2 = 1.47; low cell count flag = enough cells to score
1700012B09Rik → p65 translocation robust z-score = -0.58; nuclear/cytoplasmic p65 ratio, rep 1 = 1.32; nuclear/cytoplasmic p65 ratio, rep 2 = 1.14; low cell count flag = enough cells to score
Pramel48 → p65 translocation robust z-score = 1.59; nuclear/cytoplasmic p65 ratio, rep 1 = 1.78; nuclear/cytoplasmic p65 ratio, rep 2 = 1.79; low cell count flag = enough cells to score
Srsf11 → p65 translocation robust z-score = 2.71; nuclear/cytoplasmic p65 ratio, rep 1 = 1.88; nuclear/cytoplasmic p65 ratio, rep 2 = 2.16; low cell count flag = enough cells to score
Gimap1 → p65 translocation robust z-score = 1.15; nuclear/cytoplasmic p65 ratio, rep 1 = 1.78; nuclear/cytoplasmic p65 ratio, rep 2 = 1.53; low cell count flag = enough cells to score
Ift43 → p65 translocation robust z-score = -0.41; nuclear/cytoplasmic p65 ratio, rep 1 = 1.34; nuclear/cytoplasmic p65 ratio, rep 2 = 1.22; low cell count flag = enough cells to score
Disc1 → p65 translocation robust z-score = 0; nuclear/cytoplasmic p65 ratio, rep 1 = 1.5; nuclear/cytoplasmic p65 ratio, rep 2 = 1.35; low cell count flag = enough cells to score
Cd99 → nuclear/cytoplasmic p65 ratio, rep 1 = 1.31; nuclear/cytoplasmic p65 ratio, rep 2 = 1.61; low cell count flag = fewer than 50 cells per well; well left out of scoring
Adig → nuclear/cytoplasmic p65 ratio, rep 1 = 1.35; nuclear/cytoplasmic p65 ratio, rep 2 = 1.2; low cell count flag = fewer than 50 cells per well; well left out of scoring
Bet1l → nuclear/cytoplasmic p65 ratio, rep 1 = 1.13; nuclear/cytoplasmic p65 ratio, rep 2 = 1.3; low cell count flag = fewer than 50 cells per well; well left out of scoring
Tex47 → p65 translocation robust z-score = 1.76; nuclear/cytoplasmic p65 ratio, rep 1 = 1.47; nuclear/cytoplasmic p65 ratio, rep 2 = 1.48; low cell count flag = enough cells to score
Ptpn4 → p65 translocation robust z-score = 0.2; nuclear/cytoplasmic p65 ratio, rep 1 = 1.53; nuclear/cytoplasmic p65 ratio, rep 2 = 1.43; low cell count flag = enough cells to score
Pramel7 → p65 translocation robust z-score = 0.47; nuclear/cytoplasmic p65 ratio, rep 1 = 1.42; nuclear/cytoplasmic p65 ratio, rep 2 = 1.28; low cell count flag = enough cells to score
Arfgef2 → p65 translocation robust z-score = -0.41; nuclear/cytoplasmic p65 ratio, rep 1 = 1.89; nuclear/cytoplasmic p65 ratio, rep 2 = 1.55; low cell count flag = enough cells to score
Pianp → p65 translocation robust z-score = -0.31; nuclear/cytoplasmic p65 ratio, rep 1 = 1.35; nuclear/cytoplasmic p65 ratio, rep 2 = 1.48; low cell count flag = enough cells to score
Defb14 → p65 translocation robust z-score = -0.19; nuclear/cytoplasmic p65 ratio, rep 1 = 1.54; nuclear/cytoplasmic p65 ratio, rep 2 = 1.53; low cell count flag = enough cells to score
Cpeb2 → p65 translocation robust z-score = 0.5; nuclear/cytoplasmic p65 ratio, rep 1 = 1.67; nuclear/cytoplasmic p65 ratio, rep 2 = 1.84; low cell count flag = enough cells to score
Fcna → p65 translocation robust z-score = -0.87; nuclear/cytoplasmic p65 ratio, rep 1 = 1.41; nuclear/cytoplasmic p65 ratio, rep 2 = 1.2; low cell count flag = enough cells to score
Ints15 → p65 translocation robust z-score = 0.9; nuclear/cytoplasmic p65 ratio, rep 1 = 1.65; nuclear/cytoplasmic p65 ratio, rep 2 = 1.42; low cell count flag = enough cells to score
Avpr1a → p65 translocation robust z-score = 0.46; nuclear/cytoplasmic p65 ratio, rep 1 = 1.85; nuclear/cytoplasmic p65 ratio, rep 2 = 1.38; low cell count flag = enough cells to score
Avpr1a → p65 translocation robust z-score = 0.67; nuclear/cytoplasmic p65 ratio, rep 1 = 1.54; nuclear/cytoplasmic p65 ratio, rep 2 = 1.74; low cell count flag = enough cells to score
Slc25a5 → p65 translocation robust z-score = -0.2; nuclear/cytoplasmic p65 ratio, rep 1 = 1.56; nuclear/cytoplasmic p65 ratio, rep 2 = 1.42; low cell count flag = enough cells to score
Ipmk → p65 translocation robust z-score = 0.4; nuclear/cytoplasmic p65 ratio, rep 1 = 1.8; nuclear/cytoplasmic p65 ratio, rep 2 = 1.39; low cell count flag = enough cells to score
Mapk9 → p65 translocation robust z-score = -0.7; nuclear/cytoplasmic p65 ratio, rep 1 = 1.74; nuclear/cytoplasmic p65 ratio, rep 2 = 1.29; low cell count flag = enough cells to score
Cxcl3 → p65 translocation robust z-score = 1.33; nuclear/cytoplasmic p65 ratio, rep 1 = 1.73; nuclear/cytoplasmic p65 ratio, rep 2 = 1.85; low cell count flag = enough cells to score
Srd5a1 → p65 translocation robust z-score = 0.26; nuclear/cytoplasmic p65 ratio, rep 1 = 1.54; nuclear/cytoplasmic p65 ratio, rep 2 = 1.64; low cell count flag = enough cells to score
